Results are given in words; binding and its absence hold for the method and conditions named. Some results given as binding are weak or reduced against the parent protein; the word gives no strength.
Molecular target: T1, TGF-β2 (UniProt P61812)
T1 sequence (looked up): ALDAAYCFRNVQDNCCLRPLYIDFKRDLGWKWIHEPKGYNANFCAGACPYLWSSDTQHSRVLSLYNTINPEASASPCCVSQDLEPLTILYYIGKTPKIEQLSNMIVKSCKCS
Experiment: BLI (octet), TGF-β2 coupled to AR2G probe, antibody in solution

binding: binds
B1: 抗TGF-β单抗12.7 (antibody, human IgG4 S228P, kappa, V domains shown)
VH: QVQLVQSGAEVKKPGASVKVSCKASGYTFTSEWMNWVRQAPGQGLEWMGQIFPALGSTNYNEMYEGRVTMTTDTSTSTAYMELRSLRSDDTAVYYCARGIGNYALDAMDYWGQGTLVTVSS
VL: DIQMTQSPSSLSASVGDRVTITCRASESVDFYGNSFMHWYQQKPGKAPKLLIYLASNLESGVPSRFSGSGSGTDFTLTISSLQPEDFATYYCQQNIEDPLTFGGGTKVEIKR
